{"source": "PubChem BioAssay AID1508597 – Cure First – 2020", "aim": "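Genes whose silencing sensitises or protects ovarian cancer cells against rucaparib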 (primary screen)", "cell system": "human ovarian carcinoma lines grown from tumours: OCI-P5x (papillary serous) and OCI-C5x (clear cell)", "reagent": "siRNA pool against human genes, 1.25 pmol siRNA per well", "timing": "72 h or 96 h, depending on the cell culture", "treatment": "rucaparib 20 µM (about IC30) or vehicle, present until read-out", "rucaparib or vehicle": "Vehicle", "cell line": "OCI-P5x (serous)", "measurement": "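ATP luminescence measured at 72 or 96 h according to the culture, then normalised and expressed as percent viability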", "direction": "viability, normalised: higher = more viable cells remaining", "rule for the call": "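a well counts as a hit if its normalised viability is under 80 percent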", "calls": "active = viability under 80%; inactive = viability 80% or more", "note": "Shown is an unselected part of the about 2,100 reagents, under one of the conditions tested. 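Calls flag viability under 80% in either arm, not effects specific to rucaparib; the reference for percent is not stated.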 A number with no mark means an inactive call. A reagent listed more than once was tested more than once; the source does not tell the runs apart. The record does not give: the 100% reference."}
{"gene knocked down":"COQ8B (coenzyme Q8B)","PubChem SID":"SID405527671","technical replicate":"1","viability, normalised (%)":"72.4 (active)"}
{"gene knocked down":"COQ8B (coenzyme Q8B)","PubChem SID":"SID405527671","technical replicate":"2","viability, normalised (%)":"76.2 (active)"}
{"gene knocked down":"COQ8B (coenzyme Q8B)","PubChem SID":"SID405527671","technical replicate":"3","viability, normalised (%)":86.5}
{"gene knocked down":"ERN2 (endoplasmic reticulum to nucleus signaling 2)","PubChem SID":"SID405527677","technical replicate":"1","viability, normalised (%)":80.6}
{"gene knocked down":"ERN2 (endoplasmic reticulum to nucleus signaling 2)","PubChem SID":"SID405527677","technical replicate":"2","viability, normalised (%)":80.1}
{"gene knocked down":"ERN2 (endoplasmic reticulum to nucleus signaling 2)","PubChem SID":"SID405527677","technical replicate":"3","viability, normalised (%)":"75.5 (active)"}
{"gene knocked down":"PCDHB13 (protocadherin beta 13)","PubChem SID":"SID405527121","technical replicate":"1","viability, normalised (%)":"31.9 (active)"}
{"gene knocked down":"PCDHB13 (protocadherin beta 13)","PubChem SID":"SID405527121","technical replicate":"2","viability, normalised (%)":"32.7 (active)"}
{"gene knocked down":"PCDHB13 (protocadherin beta 13)","PubChem SID":"SID405527121","technical replicate":"3","viability, normalised (%)":"53.5 (active)"}
{"gene knocked down":"MAK (male germ cell associated kinase)","PubChem SID":"SID405527602","technical replicate":"1","viability, normalised (%)":105}
{"gene knocked down":"MAK (male germ cell associated kinase)","PubChem SID":"SID405527602","technical replicate":"2","viability, normalised (%)":94.6}
{"gene knocked down":"MAK (male germ cell associated kinase)","PubChem SID":"SID405527602","technical replicate":"3","viability, normalised (%)":110}
{"gene knocked down":"HDAC8 (histone deacetylase 8)","PubChem SID":"SID405526846","technical replicate":"1","viability, normalised (%)":95.6}
{"gene knocked down":"HDAC8 (histone deacetylase 8)","PubChem SID":"SID405526846","technical replicate":"2","viability, normalised (%)":96.1}
{"gene knocked down":"HDAC8 (histone deacetylase 8)","PubChem SID":"SID405526846","technical replicate":"3","viability, normalised (%)":84.5}

Next part, starting with the last 4 of the part before.
{"gene knocked down":"MAK (male germ cell associated kinase)","PubChem SID":"SID405527602","technical replicate":"3","viability, normalised (%)":110}
{"gene knocked down":"HDAC8 (histone deacetylase 8)","PubChem SID":"SID405526846","technical replicate":"1","viability, normalised (%)":95.6}
{"gene knocked down":"HDAC8 (histone deacetylase 8)","PubChem SID":"SID405526846","technical replicate":"2","viability, normalised (%)":96.1}
{"gene knocked down":"HDAC8 (histone deacetylase 8)","PubChem SID":"SID405526846","technical replicate":"3","viability, normalised (%)":84.5}
{"gene knocked down":"COASY (Coenzyme A synthase)","PubChem SID":"SID405527658","technical replicate":"1","viability, normalised (%)":"75.4 (active)"}
{"gene knocked down":"COASY (Coenzyme A synthase)","PubChem SID":"SID405527658","technical replicate":"2","viability, normalised (%)":"62.6 (active)"}
{"gene knocked down":"COASY (Coenzyme A synthase)","PubChem SID":"SID405527658","technical replicate":"3","viability, normalised (%)":"52.7 (active)"}
{"gene knocked down":"TOP2A (DNA topoisomerase II alpha)","PubChem SID":"SID405528356","technical replicate":"1","viability, normalised (%)":"77.5 (active)"}
{"gene knocked down":"TOP2A (DNA topoisomerase II alpha)","PubChem SID":"SID405528356","technical replicate":"2","viability, normalised (%)":"55 (active)"}
{"gene knocked down":"TOP2A (DNA topoisomerase II alpha)","PubChem SID":"SID405528356","technical replicate":"3","viability, normalised (%)":"69.5 (active)"}
{"gene knocked down":"CHEK1 (checkpoint kinase 1)","PubChem SID":"SID405527588","technical replicate":"1","viability, normalised (%)":"45.9 (active)"}
{"gene knocked down":"CHEK1 (checkpoint kinase 1)","PubChem SID":"SID405527588","technical replicate":"1","viability, normalised (%)":"37.7 (active)"}
{"gene knocked down":"CHEK1 (checkpoint kinase 1)","PubChem SID":"SID405527588","technical replicate":"2","viability, normalised (%)":"43.6 (active)"}
{"gene knocked down":"CHEK1 (checkpoint kinase 1)","PubChem SID":"SID405527588","technical replicate":"2","viability, normalised (%)":"43.8 (active)"}
{"gene knocked down":"CHEK1 (checkpoint kinase 1)","PubChem SID":"SID405527588","technical replicate":"3","viability, normalised (%)":"45.9 (active)"}
{"gene knocked down":"CHEK1 (checkpoint kinase 1)","PubChem SID":"SID405527588","technical replicate":"3","viability, normalised (%)":"58.4 (active)"}
{"gene knocked down":"DAPK1 (death associated protein kinase 1)","PubChem SID":"SID405527461","technical replicate":"1","viability, normalised (%)":120}
{"gene knocked down":"DAPK1 (death associated protein kinase 1)","PubChem SID":"SID405527461","technical replicate":"2","viability, normalised (%)":101}
{"gene knocked down":"DAPK1 (death associated protein kinase 1)","PubChem SID":"SID405527461","technical replicate":"3","viability, normalised (%)":124}
{"gene knocked down":"NEK1 (NIMA related kinase 1)","PubChem SID":"SID405527848","technical replicate":"1","viability, normalised (%)":"74.9 (active)"}
{"gene knocked down":"NEK1 (NIMA related kinase 1)","PubChem SID":"SID405527848","technical replicate":"2","viability, normalised (%)":"75.3 (active)"}
{"gene knocked down":"NEK1 (NIMA related kinase 1)","PubChem SID":"SID405527848","technical replicate":"3","viability, normalised (%)":"61.4 (active)"}
